Results as given in PMC4932458.
These are yes or no findings as the source states them, for the method shown. In cells and extracts the contact can be indirect. Some results given as binding are weak or reduced against the parent protein; the word gives no strength.

Target: T1, FANCA protein (human (endogenous in HEK 293T)) (UniProt O15360)
T1 sequence: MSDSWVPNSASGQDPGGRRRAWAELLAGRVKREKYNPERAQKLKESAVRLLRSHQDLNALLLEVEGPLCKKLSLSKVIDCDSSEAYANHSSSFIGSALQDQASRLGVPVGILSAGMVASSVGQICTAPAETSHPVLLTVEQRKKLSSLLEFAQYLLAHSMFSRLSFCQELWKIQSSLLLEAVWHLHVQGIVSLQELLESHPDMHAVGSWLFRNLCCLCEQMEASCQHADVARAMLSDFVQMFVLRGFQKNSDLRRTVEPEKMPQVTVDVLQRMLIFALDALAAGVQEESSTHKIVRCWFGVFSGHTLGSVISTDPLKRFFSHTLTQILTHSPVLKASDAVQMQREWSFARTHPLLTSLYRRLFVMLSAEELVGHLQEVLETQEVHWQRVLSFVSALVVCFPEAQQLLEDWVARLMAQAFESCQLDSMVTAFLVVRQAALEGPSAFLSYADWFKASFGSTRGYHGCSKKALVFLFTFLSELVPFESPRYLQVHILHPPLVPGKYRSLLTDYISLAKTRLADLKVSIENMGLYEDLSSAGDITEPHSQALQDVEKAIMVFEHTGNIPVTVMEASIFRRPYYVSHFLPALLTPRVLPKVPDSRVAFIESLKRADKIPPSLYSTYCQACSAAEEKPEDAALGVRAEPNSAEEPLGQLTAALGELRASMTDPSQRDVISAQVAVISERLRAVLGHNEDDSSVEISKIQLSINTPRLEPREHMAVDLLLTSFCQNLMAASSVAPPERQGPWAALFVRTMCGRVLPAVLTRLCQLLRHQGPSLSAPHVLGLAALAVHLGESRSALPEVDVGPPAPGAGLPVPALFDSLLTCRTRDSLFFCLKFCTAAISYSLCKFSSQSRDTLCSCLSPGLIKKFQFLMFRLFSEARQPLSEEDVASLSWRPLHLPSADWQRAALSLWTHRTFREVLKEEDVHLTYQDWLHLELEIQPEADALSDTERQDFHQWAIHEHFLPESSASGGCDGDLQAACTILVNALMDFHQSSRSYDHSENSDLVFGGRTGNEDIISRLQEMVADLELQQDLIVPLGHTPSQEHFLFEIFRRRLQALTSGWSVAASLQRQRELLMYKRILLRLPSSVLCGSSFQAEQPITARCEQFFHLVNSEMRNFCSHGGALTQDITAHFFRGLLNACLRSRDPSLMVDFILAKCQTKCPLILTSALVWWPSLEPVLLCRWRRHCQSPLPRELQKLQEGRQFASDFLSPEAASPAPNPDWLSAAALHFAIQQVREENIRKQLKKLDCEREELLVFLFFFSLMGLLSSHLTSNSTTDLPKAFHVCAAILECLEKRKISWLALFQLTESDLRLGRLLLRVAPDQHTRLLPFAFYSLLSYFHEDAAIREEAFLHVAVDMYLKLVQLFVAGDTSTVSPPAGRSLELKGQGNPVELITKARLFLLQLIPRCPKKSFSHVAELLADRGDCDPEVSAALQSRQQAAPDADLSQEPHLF
Assay: co-IP; HEK 293T cells treated with 200 ng/mL MMC for 16 h; lysis buffer 50 mM Tris-Cl pH 7.4, 150 mM NaCl, 0.3% Igepal CA-630, 0.2% Triton X-100; precleared lysates precipitated with anti-FANCA antibody and protein A-agarose at 4 °C; Aurora A kinase detected by immunoblot

- binding: binds
B1: Aurora A kinase (enzyme, UniProt O14965 1-403)
chain: MDRSKENCISGPVKATAPVGGPKRVLVTQQFPCQNPLPVNSGQAQRVLCPSNSSQRIPLQAQKLVSSHKPVQNQKQKQLQATSVPHPVSRPLNNTQKSKQPLPSAPENNPEEELASKQKNEESKKRQWALEDFEIGRPLGKGKFGNVYLAREKQSKFILALKVLFKAQLEKAGVEHQLRREVEIQSHLRHPNILRLYGYFHDATRVYLILEYAPLGTVYRELQKLSKFDEQRTATYITELANALSYCHSKRVIHRDIKPENLLLGSAGELKIADFGWSVHAPSSRRTTLCGTLDYLPPEMIEGRMHDEKVDLWSLGVLCYEFLVGKPPFEANTYQETYKRISRVEFTFPDFVTEGARDLISRLLKHNPSQRPMLREVLEHPWITANSSKPSNCQNKESASKQS
